Among the data in PubChem BioAssay AID2685 (National Center for Advancing Translational Sciences (NCATS), 2010) are cell number change and AC50 values, retold here.

The experiment in a line: qHTS Assay for Lipid Storage Modulators in Drosophila S3 Cells.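 For cell number change: cells counted by Cell Tracker Red CMTPX staining in the red channel.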 The settings on record: BODIPY lipid droplet fluorescence, 18-24 h; for cell number change: measured here: cell count max response, cells fed with added oleic acid. The procedure, abridged: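 Drosophila S3 cells got compounds at several concentrations plus oleic acid (400 uM solution). Laser-scanning cytometry with 488 nm excitation read lipid droplets at 500-530 nm and cells at 575-640 nm. Percent activity was relative to 20 uM Triacsin C.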
On the technique in general: In qHTS, concentration-response curves come from the screen itself.

Where [1] appears, read: measured here: lipid fluorescence (Fed channel) AC50, cells fed with added oleic acid.
Where [2] appears, read: measured here: cell number channel AC50, cells fed with added oleic acid.

Some of the results follow. Shown are side measurements of this screen, not its main read-out; they come without a call. Compounds called inactive in the main read-out are mostly missing here. Words in brackets tell the shape of the fitted curve; partial curves, single points and poor fits give uncertain potencies.

One may read the AC50 as the midpoint of the concentration-response curve, whichever way the signal moves. Low values mean activity at low concentration, high ones activity only at high concentration.

In the case of `O=C(CS(=O)(=O)Cc1ccccc1)Nc1ncccn1`, the cell number change is -20.5%. Also, the half-maximal activity concentration (AC50) under setting [1] is 1.46 µM [falling, partial curve].

As for `Nc1nnc(SCc2ccc(F)cc2)s1`, the cell number change came out at 0.128%. The AC50 under setting [1] was 0.82 µM [falling, full curve, poor fit].

As to `Cc1cc(C)nc(NS(=O)(=O)c2ccc(CC(C)C)cc2)c1`, the cell number change is 15.4%. The AC50 under setting [2] is 0.103 µM [rising, full curve, poor fit]. For the same compound, under setting [1], the AC50 was 9.2 µM [rising, partial curve, poor fit].

With `CCN(CC)c1nc(C#N)cc(-c2ccc(OC)cc2)n1`, the cell number change was -6.89%. In addition, the AC50 under setting [1] is 0.731 µM [falling, single point].

For `CN(C)c1ccc(N2CC(C)(C)C2=O)cc1`, the cell number change amounted to 3.12%. For the same compound, under setting [1], the AC50 was 0.731 µM [falling, single point].

Regarding `COc1ccc(-c2c(C#Cc3ccsc3)c3cc(-c4ccc(OC)nc4)ccc3n2C)cc1`, the cell number change stood at 13.4%. The AC50 under setting [1] is 0.731 µM [rising, partial curve].

As for `O=C(Nc1nc2ccccc2[nH]1)C1CCCO1` (stereo not drawn), the cell number change was 0.0701%. Further, the AC50 under setting [1] is 0.00461 µM [rising, full curve, poor fit].

`Cc1ccc(CNC(=O)CCS(=O)(=O)c2cc3c(cc2Cl)NC(=O)CO3)o1`: the cell number change is -0.288%. In addition, the AC50 under setting [1] is 0.164 µM [rising, partial curve, poor fit].

Turning to `O=C1CCCC(=O)C1=C1SCCS1`, the cell number change was -11.8%. In addition, under setting [1], the AC50 was 0.116 µM [falling, full curve, poor fit].

Turning to `Cc1cccc2cc(CN(CC3CCCO3)C(c3nnnn3Cc3ccco3)C(C)C)c(=O)[nH]c12` (stereo not drawn), the cell number change is -21.6%.

In the case of `Cc1cccc(CNc2ncnc3ccc(-c4ccc5c(ccn5C)c4)cc23)c1`, the cell number change was -20.5%. Moreover, under setting [1], the AC50 is 14.6 µM [falling, partial curve].

On to `CC(C)OC(=O)Cn1cnc2ccc(Br)cc2c1=O`, for which the cell number change was -42.9%. In addition, the AC50 under setting [2] was 25.9 µM [falling, single point]. The AC50 under setting [1] is 29.1 µM [falling, single point].

With `CCOC(=O)CN1C(c2ccc(O)cc2)Nc2ccc(Br)cc2C1c1ccccc1` (stereo not drawn), the cell number change is -17.4%. Also, the AC50 under setting [1] was 13 µM [falling, single point].

Turning to `O=S(=O)(c1cc(C(F)(F)F)ccc1Cl)N1CCCCCC1`, the cell number change was -32.3%. For the same compound, the concentration at half-maximal activity (AC50) under setting [2] was 29.1 µM [falling, single point]. Besides, the AC50 under setting [1] is 29.1 µM [falling, single point].

Turning to `CCN(CC(=O)Nc1c(F)cccc1F)C(=O)c1nn(C)c(=O)c2ccccc12`, the cell number change was -15.5%. For the same compound, the AC50 under setting [1] was 32.6 µM [falling, single point].

On to `Cc1cn([C@H](C(=O)NCCCCCCCCCCC(=O)N2CCNCC2)[C@@H](C)O)nn1`, for which the cell number change is -36.4%. Also, the AC50 under setting [2] was 29.1 µM [falling, single point]. Besides, under setting [1], the AC50 was 29.1 µM [falling, single point].

As for `CCOc1ccc(N2CC(C(=O)N3CCCC3)CC2=O)cc1` (stereo not drawn), the cell number change came to 15.8%. Also, the AC50 under setting [1] was 8.2 µM [rising, partial curve].

As for `CCOc1cc2c3c(c1)C1(C(=O)N3C(C)(C)CC2C)C(C#N)=C(N)N2C(=C1C#N)Nc1ccccc12` (stereo not drawn), the cell number change is -16.1%. In addition, the AC50 under setting [1] is 6.51 µM [falling, full curve, poor fit].

In the case of `C/C(N)=C(/C#N)C(=O)CSc1cc(Cl)ccc1Cl`, the cell number change was -25.4%. Further, the AC50 under setting [2] was 0.206 µM [falling, full curve, poor fit].

Consider `CCCCCCC1CC(CCC(=O)Nc2ccc([N+](=O)[O-])cc2)C(=O)O1` (stereo not drawn), for which the cell number change amounted to 22%. Further, the AC50 under setting [1] is 0.651 µM [falling, single point].

For `COc1ccc(Nc2nc(N3CCCCC3)nc(N3CCCCC3)n2)c(OC)c1`, the cell number change is -2.88%.

For `Cc1nc2ccccc2c2oc(C(=O)N3CCN(c4ccc([N+](=O)[O-])cc4)CC3)cc12`, the AC50 is, setting by setting: under setting [2], 0.13 µM [rising, full curve, poor fit]; under setting [1], 0.206 µM [rising, full curve, poor fit].

Take `COC(=O)c1nn(C23CC4CC(CC(C4)C2)C3)c2c1C(=O)N(c1ccc(F)cc1)C2=O`: the cell number change worked out at 54.5%. Also, the AC50 under setting [2] was 29.1 µM [rising, single point]. In addition, the AC50 under setting [1] was 20.6 µM [rising, single point].

Consider `CCN(Cc1ccccc1)Cc1nc(CCc2ccccc2)no1`, for which the AC50 under setting [1] was 2.31 µM [rising, partial curve, poor fit].

Turning to `Cc1ccc(NC(=O)CNc2cccc(S(=O)(=O)N3CCOCC3)c2)cc1F`, the cell number change came out at 69.7%. Further, under setting [2], the AC50 was 16.4 µM [rising, partial curve, poor fit].

With `O=C(NC(Cc1ccccc1)C(=O)O)/C(=C\c1ccc(Br)cc1)NC(=O)c1ccc(Br)o1` (stereo not drawn), the cell number change is 22.5%.

In the case of `COc1ccc(NC(=O)CCN2C(=O)c3ccccc3S2(=O)=O)cc1`, the cell number change was determined as 9.83%.

On to `CCc1cc2ccc(OC)cc2nc1SCC(=O)Nc1cc(C)on1`, for which the cell number change is -22.4%. Moreover, the AC50 under setting [1] was 0.411 µM [falling, full curve, poor fit].

As for `CNC(=O)COC(=O)c1cc(NC(=O)c2ccco2)c(OC)c(OC)c1`, the cell number change came out at 81%. For the same compound, under setting [2], the AC50 is 0.651 µM [rising, full curve]. The AC50 under setting [1] was 2.06 µM [rising, partial curve].

Regarding `CCOC(=O)C1(Cc2cccc(OC)c2)CCN(C2CCOCC2)CC1`, the cell number change is -25.8%. Also, the AC50 under setting [1] was 4.11 µM [falling, partial curve, poor fit].

Turning to `CCNc1nc(C)cc(COC)c1C#N`, the cell number change is 1.72%. Besides, the AC50 under setting [2] was 6.51 µM [falling, single point]. Further, the AC50 under setting [1] was 3.26 µM [falling, single point].

For `CCN(C(=S)NCc1ccccc1)c1cccc2ccccc12`, the cell number change stood at 74.3%.

Turning to `Cc1ccc(S(=O)(=O)NC(CC(=O)O)c2ccccc2)cc1` (stereo not drawn), the cell number change is -27.3%. In addition, the concentration at half-maximal activity (AC50) under setting [1] is 29.1 µM [falling, single point].

Take `CCOc1ccc(OCC)c(S(=O)(=O)NNC(=O)c2c(C)nc3ccccn23)c1`: the cell number change is 3.02%. Moreover, under setting [2], the AC50 was 2.31 µM [rising, partial curve, poor fit]. Besides, under setting [1], the AC50 was 6.51 µM [rising, single point].

With `O=C(N/N=C/C(Br)=C/c1ccccc1)C1CC1`, the cell number change was 19.1%. The concentration at half-maximal activity (AC50) under setting [2] was 0.82 µM [rising, full curve, poor fit].

`CC1=NN(c2ccc(C)cc2C)C(=O)C1C(c1ccccc1O)C1C(=O)N(c2ccc(C)cc2C)N=C1C` (stereo not drawn): the cell number change was 5.3%.

On to `COc1ccc(-c2n[nH]c(=S)n2-c2ccc(C)cc2)cc1OC`, for which the cell number change is -23.4%. For the same compound, the AC50 under setting [1] is 29.1 µM [falling, single point].

Turning to `COC(=O)N/N=C/c1cn(CCCOc2ccc(C)cc2)c2ccccc12`, the AC50 under setting [1] is 6.51 µM [rising, partial curve, poor fit].

Take `COc1cc(NC(=O)C(=O)NNC(=O)C2CCCCC2)c(OC)cc1Cl`: the cell number change was -9.87%. Also, under setting [2], the AC50 is 1.84 µM [falling, partial curve, poor fit].

`Cc1ccc(O)c(NC(=O)c2ccc3c(c2)C(=O)N(CC(C)C)C3=O)c1`: the cell number change is 8.76%. In addition, under setting [1], the AC50 was 29.1 µM [rising, single point].

For `O=C1CC(C(=O)N2CCOCC2)C2(CCCCC2)O1` (stereo not drawn), the cell number change is -14.9%. Also, under setting [1], the AC50 was 2.06 µM [falling, full curve].

For `O=C(N=C1SCC(=O)N1c1ccccc1Cl)c1ccco1`, the cell number change is -14.6%. The AC50 under setting [1] is 0.082 µM [falling, full curve, poor fit].

On to `C/C(=N\NC(=O)c1ccccc1)c1cccc(Br)c1`, for which the AC50 by setting is: under setting [2], 2.31 µM [rising, partial curve]; under setting [1], 6.51 µM [rising, single point].

On to `CC(C)(C)N1CC(c2nc3ccccc3n2Cc2ccc(F)cc2)CC1=O` (stereo not drawn), for which, under setting [1], the AC50 is 7.31 µM [rising, single point].

Turning to `COC(=O)c1ccccc1NC(=O)c1sc(Cl)nc1C`, the cell number change is -15.9%. The AC50 under setting [1] is 6.51 µM [falling, partial curve, poor fit].

Turning to `COc1cc(NC(=O)c2ccc(N)nc2)cc(C(=O)Nc2cccc(C(F)(F)F)c2)c1`, the cell number change is 36.5%. For the same compound, under setting [1], the AC50 was 4.61 µM [rising, partial curve, poor fit].

Consider `Cn1nnnc1SCC(=O)N1CCN(c2cccc(Cl)c2)CC1`, for which the cell number change was found to be 14.3%. In addition, the AC50 under setting [1] is 6.51 µM [rising, partial curve].

Take `Cc1ccc2c(CC(=O)N3CCN(S(=O)(=O)c4ccc5c(c4)OCCO5)CC3)coc2c1`: the cell number change is -31.1%. Under setting [2], the AC50 was 16.4 µM [falling, partial curve, poor fit]. Further, under setting [1], the AC50 was 29.1 µM [falling, single point].

For the compound `Cc1ccc2ccc(S(=O)(=O)NCc3ccco3)cc2c1`, the cell number change was found to be 1.32%.

In the case of `NNc1nc(-c2ccccc2Cl)nc2sc3c(c12)CCCC3`, the cell number change is -8.47%.

`Cc1ccc(-c2noc(-c3ccccc3C(=O)N3CCOCC3)n2)cc1`: the cell number change worked out at 51.6%. Moreover, the AC50 under setting [2] was 32.6 µM [rising, single point]. Also, under setting [1], the AC50 is 29.1 µM [rising, single point].

Regarding `CCCCN(Cc1ccccc1)S(=O)(=O)c1ccc2c(c1)n(C)c(=O)c(=O)n2C`, the cell number change was found to be 0.258%. For the same compound, the AC50 under setting [2] was 0.116 µM [falling, full curve].

With `COC(=O)C1=C(C(=O)OC)N2C=CC=CC2(C)C(C(=O)OC)=C1C(=O)OC` (stereo not drawn), the AC50 under setting [2] was 3.66 µM [rising, partial curve].

Take `CCOC(=O)C1=C(Nc2ccccc2)CC(C)(O)C(C(=O)OCC)C1c1ccc(Cl)cc1` (stereo not drawn): under setting [1], the AC50 is 5.17 µM [falling, partial curve].

As for `Cc1[nH]ccc(=O)c1OCc1c(Cl)cccc1Cl`, the cell number change stood at 7.22%.

For the compound `Cn1c(=O)oc2cc(S(=O)(=O)N3CCc4ccccc4C3)ccc21`, the cell number change was -3.87%. Further, under setting [1], the AC50 was 0.146 µM [rising, partial curve, poor fit].

In the case of `CCCCc1ccc(NC(=O)N[C@@H](C)C(=O)O)cc1`, the cell number change is -3.39%.

As for `Cc1ccc(NC(=O)c2ccc(Cl)cc2Cl)cc1O`, the AC50 under setting [1] is 0.103 µM [falling, partial curve, poor fit].

`CCCCNC(=O)NNC(=O)c1cc(C)on1`: the cell number change amounted to 15.1%. Under setting [1], the AC50 was 0.00461 µM [falling, full curve, poor fit].

Take `CC(C)CCNC(=O)CN(CCN1CCOCC1)C(=O)Cn1nnc(-c2ccc(F)cc2)n1`: the AC50 under setting [2] is 6.51 µM [rising, single point].
